According to article PMC3857839:
Like-named read-outs stand apart in the source and are kept apart here. Results are given in words; binding and its absence hold for the method and conditions named. For part of these data: In cells and extracts the contact can be indirect. Some entries that bind do so weakly or less than the wild type. For part of these data: Sequences can lack the tags named with a protein. Each block holds one molecule with its values, some of them ahead of it.

By UniProt entry, the sequences of proteins in these tests, tags left out. Where a name states a change or a piece, a line headed by the entry shows the natural chain unless it says otherwise. Residues count along the entry.
UniProt P54760, 16-987: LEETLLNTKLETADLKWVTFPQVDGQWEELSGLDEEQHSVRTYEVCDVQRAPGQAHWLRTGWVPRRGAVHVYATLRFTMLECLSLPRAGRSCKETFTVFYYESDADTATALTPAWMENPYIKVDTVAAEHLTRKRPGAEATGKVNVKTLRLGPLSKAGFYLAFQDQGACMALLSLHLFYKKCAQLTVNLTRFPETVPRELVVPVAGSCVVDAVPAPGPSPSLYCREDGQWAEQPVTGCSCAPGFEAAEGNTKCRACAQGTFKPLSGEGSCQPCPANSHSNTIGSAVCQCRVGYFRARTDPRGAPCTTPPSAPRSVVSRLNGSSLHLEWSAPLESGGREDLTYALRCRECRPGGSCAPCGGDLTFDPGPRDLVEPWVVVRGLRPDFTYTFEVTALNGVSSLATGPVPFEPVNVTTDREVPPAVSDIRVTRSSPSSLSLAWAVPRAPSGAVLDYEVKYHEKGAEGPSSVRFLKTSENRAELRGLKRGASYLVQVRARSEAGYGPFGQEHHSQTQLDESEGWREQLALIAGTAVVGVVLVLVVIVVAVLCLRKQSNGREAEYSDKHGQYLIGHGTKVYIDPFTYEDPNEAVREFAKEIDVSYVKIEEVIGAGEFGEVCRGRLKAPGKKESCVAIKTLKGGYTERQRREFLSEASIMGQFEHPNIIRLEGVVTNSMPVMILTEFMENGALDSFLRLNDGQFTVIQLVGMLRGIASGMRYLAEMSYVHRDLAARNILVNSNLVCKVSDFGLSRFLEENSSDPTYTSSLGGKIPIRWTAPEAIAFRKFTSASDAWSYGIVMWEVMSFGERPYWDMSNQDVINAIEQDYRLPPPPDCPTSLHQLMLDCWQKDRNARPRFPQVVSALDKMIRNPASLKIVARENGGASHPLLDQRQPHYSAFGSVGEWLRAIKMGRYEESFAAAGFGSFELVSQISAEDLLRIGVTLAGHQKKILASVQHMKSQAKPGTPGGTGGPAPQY
UniProt P52800, 29-232: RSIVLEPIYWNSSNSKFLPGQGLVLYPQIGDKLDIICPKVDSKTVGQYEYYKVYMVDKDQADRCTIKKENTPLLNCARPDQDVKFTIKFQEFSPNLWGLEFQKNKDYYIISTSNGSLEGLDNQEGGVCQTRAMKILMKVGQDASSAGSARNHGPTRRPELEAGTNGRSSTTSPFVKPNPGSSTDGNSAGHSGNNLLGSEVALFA
UniProt P52800, 29-336: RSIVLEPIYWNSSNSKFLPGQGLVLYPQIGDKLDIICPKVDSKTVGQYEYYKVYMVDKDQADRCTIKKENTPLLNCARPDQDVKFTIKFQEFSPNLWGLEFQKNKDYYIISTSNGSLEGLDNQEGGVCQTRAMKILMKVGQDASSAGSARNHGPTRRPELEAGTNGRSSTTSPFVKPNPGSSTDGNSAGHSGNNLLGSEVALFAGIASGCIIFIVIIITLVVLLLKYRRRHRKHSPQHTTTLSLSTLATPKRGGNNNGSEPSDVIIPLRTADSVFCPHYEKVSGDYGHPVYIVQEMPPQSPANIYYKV

Tests used:
[1] = target: EphB4 (human (endogenous in A549)) (UniProt P54760)
EphA3 (human) [2] = target: T1, EphA3 (human) (UniProt P29320)
T1 sequence: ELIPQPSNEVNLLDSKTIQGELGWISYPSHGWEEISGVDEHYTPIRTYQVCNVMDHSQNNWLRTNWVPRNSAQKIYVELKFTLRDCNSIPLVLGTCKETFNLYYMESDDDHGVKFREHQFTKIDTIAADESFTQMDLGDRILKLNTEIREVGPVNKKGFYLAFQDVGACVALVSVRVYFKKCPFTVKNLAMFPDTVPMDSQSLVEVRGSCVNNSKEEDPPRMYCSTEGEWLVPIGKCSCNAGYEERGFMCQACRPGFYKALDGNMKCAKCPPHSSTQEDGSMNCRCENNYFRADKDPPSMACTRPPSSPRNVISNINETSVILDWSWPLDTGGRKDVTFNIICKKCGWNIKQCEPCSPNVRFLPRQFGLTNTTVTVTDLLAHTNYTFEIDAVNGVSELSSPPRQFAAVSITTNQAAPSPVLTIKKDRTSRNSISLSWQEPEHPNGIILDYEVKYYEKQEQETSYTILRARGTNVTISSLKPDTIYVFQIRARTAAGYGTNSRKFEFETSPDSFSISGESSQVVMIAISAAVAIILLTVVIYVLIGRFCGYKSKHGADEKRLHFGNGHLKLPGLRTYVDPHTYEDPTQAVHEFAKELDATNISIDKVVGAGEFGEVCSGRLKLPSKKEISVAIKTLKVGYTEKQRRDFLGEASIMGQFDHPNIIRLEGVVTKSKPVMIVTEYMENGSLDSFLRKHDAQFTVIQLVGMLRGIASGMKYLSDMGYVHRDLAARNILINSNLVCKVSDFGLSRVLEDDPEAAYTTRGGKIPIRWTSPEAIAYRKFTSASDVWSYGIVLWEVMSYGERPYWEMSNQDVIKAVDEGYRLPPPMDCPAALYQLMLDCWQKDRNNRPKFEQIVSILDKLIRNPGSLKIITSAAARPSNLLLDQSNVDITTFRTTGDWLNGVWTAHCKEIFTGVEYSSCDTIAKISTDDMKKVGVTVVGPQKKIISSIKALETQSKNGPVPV

[3] = target: EphB4 (human (endogenous in A549)) (UniProt P54760); remark: listed apart in the source
EphA3 ΔN (human) = target: T2, EphA3 ΔN (human) (UniProt P29320); assay: co-IP; HEK AD-293 cells lysed in Triton X-100 buffer, precleared, 3 hours at 4 °C with anti-EphA3 monoclonal antibody on GammaBind Plus sepharose beads; immunoblot with anti-ephrin-A3 antiserum
T2 sequence: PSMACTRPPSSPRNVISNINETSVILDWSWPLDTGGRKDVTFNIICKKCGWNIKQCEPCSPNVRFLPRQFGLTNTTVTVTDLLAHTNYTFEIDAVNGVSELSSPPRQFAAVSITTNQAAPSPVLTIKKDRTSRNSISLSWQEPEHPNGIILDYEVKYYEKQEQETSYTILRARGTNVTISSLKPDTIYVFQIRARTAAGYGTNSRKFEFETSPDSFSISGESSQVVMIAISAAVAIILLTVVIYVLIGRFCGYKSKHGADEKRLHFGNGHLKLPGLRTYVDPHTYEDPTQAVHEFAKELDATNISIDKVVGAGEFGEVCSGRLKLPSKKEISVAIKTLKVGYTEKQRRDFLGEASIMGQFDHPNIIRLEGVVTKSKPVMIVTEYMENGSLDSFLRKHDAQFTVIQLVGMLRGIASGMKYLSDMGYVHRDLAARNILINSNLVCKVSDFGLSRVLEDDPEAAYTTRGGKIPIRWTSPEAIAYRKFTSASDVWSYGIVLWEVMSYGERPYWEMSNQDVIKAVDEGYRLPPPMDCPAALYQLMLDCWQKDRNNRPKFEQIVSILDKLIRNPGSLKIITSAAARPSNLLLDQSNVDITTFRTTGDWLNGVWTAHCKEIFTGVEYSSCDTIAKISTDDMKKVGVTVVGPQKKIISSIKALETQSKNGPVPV

[4] = target: T3, full-length EphA3 (human) (UniProt P29320); assay: as above
T3 sequence: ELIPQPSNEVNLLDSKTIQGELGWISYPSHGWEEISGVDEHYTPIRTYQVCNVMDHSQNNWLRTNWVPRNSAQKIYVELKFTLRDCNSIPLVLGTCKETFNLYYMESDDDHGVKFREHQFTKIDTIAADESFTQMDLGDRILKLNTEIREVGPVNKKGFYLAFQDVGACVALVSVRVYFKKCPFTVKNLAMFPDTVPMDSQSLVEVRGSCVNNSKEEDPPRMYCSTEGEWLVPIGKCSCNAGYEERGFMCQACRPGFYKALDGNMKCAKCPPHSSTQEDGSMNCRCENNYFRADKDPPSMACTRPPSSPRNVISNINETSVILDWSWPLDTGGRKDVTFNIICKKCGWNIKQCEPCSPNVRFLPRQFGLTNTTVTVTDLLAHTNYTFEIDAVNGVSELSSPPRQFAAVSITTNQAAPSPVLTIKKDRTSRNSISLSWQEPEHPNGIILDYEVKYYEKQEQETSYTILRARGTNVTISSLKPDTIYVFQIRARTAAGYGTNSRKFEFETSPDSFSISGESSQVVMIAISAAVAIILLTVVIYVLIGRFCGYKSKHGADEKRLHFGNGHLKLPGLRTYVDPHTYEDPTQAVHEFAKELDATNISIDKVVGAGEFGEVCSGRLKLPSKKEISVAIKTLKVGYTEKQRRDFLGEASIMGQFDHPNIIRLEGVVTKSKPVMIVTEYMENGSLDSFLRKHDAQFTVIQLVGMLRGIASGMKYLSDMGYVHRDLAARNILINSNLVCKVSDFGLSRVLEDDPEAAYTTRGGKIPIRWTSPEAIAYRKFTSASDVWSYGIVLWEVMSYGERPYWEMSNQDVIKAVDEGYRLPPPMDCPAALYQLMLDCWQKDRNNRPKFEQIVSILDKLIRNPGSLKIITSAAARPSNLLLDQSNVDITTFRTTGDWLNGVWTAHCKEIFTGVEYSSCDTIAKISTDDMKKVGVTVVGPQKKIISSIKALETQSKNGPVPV

[5] = target: T4, EphA3 ΔN G518L mutant (human) (UniProt P29320); assay: as above
T4 sequence: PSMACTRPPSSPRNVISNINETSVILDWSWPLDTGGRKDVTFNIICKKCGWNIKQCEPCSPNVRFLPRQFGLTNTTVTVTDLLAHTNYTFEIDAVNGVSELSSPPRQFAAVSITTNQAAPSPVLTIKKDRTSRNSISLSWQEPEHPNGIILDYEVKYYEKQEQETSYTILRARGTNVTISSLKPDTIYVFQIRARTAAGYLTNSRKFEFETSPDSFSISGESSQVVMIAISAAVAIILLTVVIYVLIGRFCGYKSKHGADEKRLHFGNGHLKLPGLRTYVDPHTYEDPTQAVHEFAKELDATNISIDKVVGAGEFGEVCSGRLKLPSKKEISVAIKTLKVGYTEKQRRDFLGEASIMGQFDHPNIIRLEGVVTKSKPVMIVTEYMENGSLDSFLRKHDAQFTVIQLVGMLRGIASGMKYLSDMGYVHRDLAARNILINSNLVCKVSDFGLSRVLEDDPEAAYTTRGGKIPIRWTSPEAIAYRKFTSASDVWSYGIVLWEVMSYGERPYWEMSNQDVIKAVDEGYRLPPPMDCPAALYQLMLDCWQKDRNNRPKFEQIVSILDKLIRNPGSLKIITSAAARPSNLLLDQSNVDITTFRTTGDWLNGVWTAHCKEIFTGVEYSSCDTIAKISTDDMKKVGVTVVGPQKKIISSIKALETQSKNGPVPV

EphA3 Fc = target: T5, EphA3 Fc (UniProt P29320); assay: pull-down; 1 µg EphA3 Fc immobilised on GammaBind Plus sepharose beads, 1 hour at 4 °C with precleared lysates (modified RIPA buffer) of A549 or H226 cells; immunoblot with anti-dsRed antibody; only the target purified
T5 sequence: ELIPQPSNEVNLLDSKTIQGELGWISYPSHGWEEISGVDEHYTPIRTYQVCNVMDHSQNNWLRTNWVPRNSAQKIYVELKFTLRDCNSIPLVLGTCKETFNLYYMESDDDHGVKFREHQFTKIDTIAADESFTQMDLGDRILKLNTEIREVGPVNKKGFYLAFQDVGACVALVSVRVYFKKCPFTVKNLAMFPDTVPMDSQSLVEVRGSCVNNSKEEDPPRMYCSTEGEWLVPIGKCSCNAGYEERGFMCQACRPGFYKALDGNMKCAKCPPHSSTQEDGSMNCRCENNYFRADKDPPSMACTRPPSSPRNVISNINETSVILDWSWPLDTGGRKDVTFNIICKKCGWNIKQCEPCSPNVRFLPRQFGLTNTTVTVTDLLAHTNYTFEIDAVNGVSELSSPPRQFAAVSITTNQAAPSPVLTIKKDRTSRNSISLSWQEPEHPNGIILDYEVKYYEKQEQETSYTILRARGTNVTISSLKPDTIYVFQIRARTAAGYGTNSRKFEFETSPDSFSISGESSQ

EphA3 (human) [6] = target: T1, EphA3 (human); remark: listed apart in the source
[7] = target: T6, full-length EphA3 G518L mutant (human) (UniProt P29320)
T6 sequence: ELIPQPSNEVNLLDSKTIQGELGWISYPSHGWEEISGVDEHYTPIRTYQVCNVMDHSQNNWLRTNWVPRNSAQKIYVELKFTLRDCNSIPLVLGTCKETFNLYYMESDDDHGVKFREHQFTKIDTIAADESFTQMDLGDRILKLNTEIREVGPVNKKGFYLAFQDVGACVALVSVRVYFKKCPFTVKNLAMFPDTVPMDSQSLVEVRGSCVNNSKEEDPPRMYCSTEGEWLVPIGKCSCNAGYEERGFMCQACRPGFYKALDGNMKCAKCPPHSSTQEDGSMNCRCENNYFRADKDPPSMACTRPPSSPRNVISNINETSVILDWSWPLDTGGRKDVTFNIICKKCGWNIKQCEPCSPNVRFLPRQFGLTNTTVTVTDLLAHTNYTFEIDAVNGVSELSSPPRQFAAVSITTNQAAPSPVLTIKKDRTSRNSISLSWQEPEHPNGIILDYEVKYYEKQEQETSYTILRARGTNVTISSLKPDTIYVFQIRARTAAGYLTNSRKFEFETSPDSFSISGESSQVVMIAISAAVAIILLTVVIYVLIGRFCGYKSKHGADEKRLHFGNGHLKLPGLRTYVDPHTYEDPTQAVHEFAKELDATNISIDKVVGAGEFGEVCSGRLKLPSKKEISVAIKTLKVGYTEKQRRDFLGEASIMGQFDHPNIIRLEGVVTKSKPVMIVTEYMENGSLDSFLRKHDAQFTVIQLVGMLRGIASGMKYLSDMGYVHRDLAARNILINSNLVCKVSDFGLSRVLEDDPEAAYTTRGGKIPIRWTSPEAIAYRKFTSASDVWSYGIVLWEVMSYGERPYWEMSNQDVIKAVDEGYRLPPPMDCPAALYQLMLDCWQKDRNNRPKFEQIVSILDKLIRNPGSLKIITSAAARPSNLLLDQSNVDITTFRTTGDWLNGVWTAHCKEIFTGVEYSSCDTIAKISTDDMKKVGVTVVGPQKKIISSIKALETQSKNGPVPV

[8] = target: T6, full-length EphA3 G518L mutant (human); remark: listed apart in the source

- binding [1]: binds
Molecule: EGFP-ephrin-B2 (from UniProt P52800 29-336) (ligand)

- binding (EphA3 (human) [2]): binds weakly
- binding [3]: binds
Molecule: ephrin-B2 AP (from UniProt P52800 29-232) (ligand)

- binding (EphA3 ΔN (human)): binds
- binding [4]: binds
- binding [5]: binds
- binding (EphA3 Fc): binds
- binding (EphA3 (human) [6]): binds
- binding [7]: binds
B1: mCherry-ephrin-A3 (ligand, UniProt O08545 23-206)
chain: QGPGGALGNRHAVYWNSSNQHLRREGYTVQVNVNDYLDIYCPHYNSSGPGGGAEQYVLYMVNLSGYRTCNASQGSKRWECNRQHASHSPIKFSEKFQRYSAFSLGYEFHAGQEYYYISTPTHNLHWKCLRMKVFVCCASTSHSGEKPVPTLPQFTMGPNVKINVLEDFEGENPQVPKLEKSISG

- binding [8]: binds
- binding (EphA3 (human) [6]): binds
B2: ephrin-A3 AP (ligand, UniProt O08545 23-206)
chain: QGPGGALGNRHAVYWNSSNQHLRREGYTVQVNVNDYLDIYCPHYNSSGPGGGAEQYVLYMVNLSGYRTCNASQGSKRWECNRQHASHSPIKFSEKFQRYSAFSLGYEFHAGQEYYYISTPTHNLHWKCLRMKVFVCCASTSHSGEKPVPTLPQFTMGPNVKINVLEDFEGENPQVPKLEKSISG

- binding (EphA3 ΔN (human)): binds
B3: mCherry-ephrin-A3 E129K mutant (ligand, UniProt O08545 23-206)
chain: QGPGGALGNRHAVYWNSSNQHLRREGYTVQVNVNDYLDIYCPHYNSSGPGGGAEQYVLYMVNLSGYRTCNASQGSKRWECNRQHASHSPIKFSEKFQRYSAFSLGYKFHAGQEYYYISTPTHNLHWKCLRMKVFVCCASTSHSGEKPVPTLPQFTMGPNVKINVLEDFEGENPQVPKLEKSISG
